PubChem BioAssay AID1159584 – Peter MacCallum Cancer Centre – 2016
Screen: 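Knock-downs that harm CDH1-null cells more than parental MCF10A cells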 (primary screen). System: human MCF10A breast epithelial cells, parental and CDH1-null. Reagents: siRNA against human genes. Measured: 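ATP luminescence (CellTiter-Glo) viability per line relative to mean mock wells over all plates, and the ratio of CDH1-null to parental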. Reading the numbers: CDH1-null / parental viability ratio: higher = CDH1-null cells survive relatively better than parental.
Here is a random part of about 18,000 reagents tested. Reagents against one gene are numbered here. Not all columns of the deposit are shown. Not stated in the record: the amount of reagent, the time to read-out.

| gene | reagent | CDH1-null / parental viability ratio |
| --- | --- | --- |
| NPTX1 (GeneID 4884) | 1 | 0.98 |
| CDH2 (GeneID 1000) | 1 | 1.23 |
| MECOM (GeneID 2122) | 1 | 0.92 |
| MECOM (GeneID 2122) | 2 | 1.12 |
| TTC27 (GeneID 55622) | 1 | 0.8 |
| GIMAP6 (GeneID 474344) | 1 | 0.92 |
| CYFIP2 (GeneID 26999) | 1 | 1.12 |
| FIZ1 (GeneID 84922) | 1 | 1.14 |
| GOLPH3 (GeneID 64083) | 1 | 1.2 |
| FMO3 (GeneID 2328) | 1 | 1.11 |
| SLC39A9 (GeneID 55334) | 1 | 1.06 |
| MIER3 (GeneID 166968) | 1 | 1.21 |
| OBP2B (GeneID 29989) | 1 | 0.97 |
| MEDAG (GeneID 84935) | 1 | 0.91 |
| ORC1 (GeneID 4998) | 1 | 1 |
| HEATR3 (GeneID 55027) | 1 | 0.97 |
| OR2T11 (GeneID 127077) | 1 | 1.31 |
| HMGN1 (GeneID 3150) | 1 | 0.77 |
| GOLGA6L9 (GeneID 440295) | 1 | 1.16 |
| NEK10 (GeneID 152110) | 1 | 0.84 |
| CLDND2 (GeneID 125875) | 1 | 1.33 |
| GALNT12 (GeneID 79695) | 1 | 1.03 |
| MCRIP2 (GeneID 84331) | 1 | 0.75 |
| ASB13 (GeneID 79754) | 1 | 1.1 |
| CRYBA1 (GeneID 1411) | 1 | 1.15 |
| SIT1 (GeneID 27240) | 1 | 0.9 |
| CCL8 (GeneID 6355) | 1 | 1.13 |
| H2AC7 (GeneID 3013) | 1 | 0.93 |

Sorted by “CDH1-null / parental viability ratio” (high to low): some entries from above
| gene | reagent | CDH1-null / parental viability ratio |
| --- | --- | --- |
| CRYBA1 (GeneID 1411) | 1 | 1.15 |
| ASB13 (GeneID 79754) | 1 | 1.1 |
